Data from the supplement of paper PMC7666118.
The other results are listed elsewhere or left out.

By UniProt entry, the sequences of proteins in these tests, tags left out. Where a name states a change or a piece, a line headed by the entry shows the natural chain unless it says otherwise.
UniProt P29590: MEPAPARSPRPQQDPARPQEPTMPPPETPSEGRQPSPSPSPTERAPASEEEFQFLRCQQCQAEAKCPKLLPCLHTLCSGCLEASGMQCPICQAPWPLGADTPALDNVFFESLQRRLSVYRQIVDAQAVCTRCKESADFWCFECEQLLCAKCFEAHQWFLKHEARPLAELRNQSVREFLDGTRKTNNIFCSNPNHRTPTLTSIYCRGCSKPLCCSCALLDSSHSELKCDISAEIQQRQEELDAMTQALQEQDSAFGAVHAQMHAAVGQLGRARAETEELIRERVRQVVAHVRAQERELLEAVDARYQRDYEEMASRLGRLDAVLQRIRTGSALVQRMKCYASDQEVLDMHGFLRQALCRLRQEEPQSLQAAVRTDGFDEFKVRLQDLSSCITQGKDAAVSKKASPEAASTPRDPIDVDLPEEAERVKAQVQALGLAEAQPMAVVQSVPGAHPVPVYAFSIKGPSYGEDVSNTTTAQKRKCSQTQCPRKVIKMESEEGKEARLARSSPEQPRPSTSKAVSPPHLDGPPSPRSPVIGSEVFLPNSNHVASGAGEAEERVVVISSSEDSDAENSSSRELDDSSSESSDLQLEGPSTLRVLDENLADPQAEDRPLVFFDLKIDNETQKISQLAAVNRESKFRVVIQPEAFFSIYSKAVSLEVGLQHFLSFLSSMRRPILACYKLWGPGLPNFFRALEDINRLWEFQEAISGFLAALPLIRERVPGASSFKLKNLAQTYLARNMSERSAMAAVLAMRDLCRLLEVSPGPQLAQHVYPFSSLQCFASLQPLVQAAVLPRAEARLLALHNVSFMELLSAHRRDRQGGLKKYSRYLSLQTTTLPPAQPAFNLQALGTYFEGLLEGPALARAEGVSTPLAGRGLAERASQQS
UniProt Q9NW08: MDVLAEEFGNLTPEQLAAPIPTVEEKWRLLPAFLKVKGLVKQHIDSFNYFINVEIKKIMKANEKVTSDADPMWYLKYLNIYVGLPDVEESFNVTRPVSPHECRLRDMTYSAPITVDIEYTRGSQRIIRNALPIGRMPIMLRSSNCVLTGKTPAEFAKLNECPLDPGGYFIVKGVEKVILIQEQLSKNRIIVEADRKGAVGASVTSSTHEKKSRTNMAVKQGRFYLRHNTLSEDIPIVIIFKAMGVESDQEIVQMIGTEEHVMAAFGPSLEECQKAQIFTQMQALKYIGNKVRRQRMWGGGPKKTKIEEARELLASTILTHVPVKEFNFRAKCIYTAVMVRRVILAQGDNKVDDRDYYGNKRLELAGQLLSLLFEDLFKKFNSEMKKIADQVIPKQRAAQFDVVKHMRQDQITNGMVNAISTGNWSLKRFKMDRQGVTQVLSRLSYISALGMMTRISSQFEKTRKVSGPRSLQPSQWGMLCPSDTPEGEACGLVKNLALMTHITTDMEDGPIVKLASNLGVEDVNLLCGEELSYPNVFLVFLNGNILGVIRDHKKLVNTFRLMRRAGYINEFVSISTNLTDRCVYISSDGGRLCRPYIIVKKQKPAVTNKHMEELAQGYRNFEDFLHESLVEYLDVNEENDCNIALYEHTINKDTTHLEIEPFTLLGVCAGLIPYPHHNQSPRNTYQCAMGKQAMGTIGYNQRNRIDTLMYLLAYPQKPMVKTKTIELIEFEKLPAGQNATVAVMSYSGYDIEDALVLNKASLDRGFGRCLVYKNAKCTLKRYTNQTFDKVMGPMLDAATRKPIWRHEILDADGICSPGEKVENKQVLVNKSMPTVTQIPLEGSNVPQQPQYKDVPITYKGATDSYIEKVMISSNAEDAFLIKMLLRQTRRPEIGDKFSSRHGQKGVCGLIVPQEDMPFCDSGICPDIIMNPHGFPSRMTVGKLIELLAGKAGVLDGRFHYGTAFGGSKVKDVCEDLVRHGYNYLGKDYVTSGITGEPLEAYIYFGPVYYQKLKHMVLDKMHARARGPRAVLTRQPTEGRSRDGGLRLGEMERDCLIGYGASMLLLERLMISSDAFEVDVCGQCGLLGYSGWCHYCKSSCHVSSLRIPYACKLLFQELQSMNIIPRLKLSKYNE
UniProt Q99755: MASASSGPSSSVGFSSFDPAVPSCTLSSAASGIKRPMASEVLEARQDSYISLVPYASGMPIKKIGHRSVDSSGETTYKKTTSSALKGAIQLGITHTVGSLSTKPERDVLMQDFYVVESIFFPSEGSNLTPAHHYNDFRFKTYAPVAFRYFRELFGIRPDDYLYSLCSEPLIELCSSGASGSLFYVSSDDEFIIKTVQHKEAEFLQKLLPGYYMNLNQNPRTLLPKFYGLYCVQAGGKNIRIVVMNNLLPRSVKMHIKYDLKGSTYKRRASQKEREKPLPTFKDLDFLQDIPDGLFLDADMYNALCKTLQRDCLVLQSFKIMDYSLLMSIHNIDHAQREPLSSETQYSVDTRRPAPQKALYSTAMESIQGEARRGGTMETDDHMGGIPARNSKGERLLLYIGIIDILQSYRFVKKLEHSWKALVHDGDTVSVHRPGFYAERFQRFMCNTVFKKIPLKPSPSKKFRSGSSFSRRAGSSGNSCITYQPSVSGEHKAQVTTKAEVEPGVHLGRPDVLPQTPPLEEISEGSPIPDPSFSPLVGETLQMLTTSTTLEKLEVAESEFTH
UniProt P60510: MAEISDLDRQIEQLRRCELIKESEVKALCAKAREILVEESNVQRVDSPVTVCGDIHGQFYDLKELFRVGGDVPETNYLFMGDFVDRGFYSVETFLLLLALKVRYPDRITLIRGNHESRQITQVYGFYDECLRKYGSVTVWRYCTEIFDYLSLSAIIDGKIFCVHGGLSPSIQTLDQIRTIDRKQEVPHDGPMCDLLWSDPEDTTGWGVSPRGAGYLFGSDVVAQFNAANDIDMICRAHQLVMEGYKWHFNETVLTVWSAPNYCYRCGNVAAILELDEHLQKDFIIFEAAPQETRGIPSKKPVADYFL
UniProt Q9H814, whole entry: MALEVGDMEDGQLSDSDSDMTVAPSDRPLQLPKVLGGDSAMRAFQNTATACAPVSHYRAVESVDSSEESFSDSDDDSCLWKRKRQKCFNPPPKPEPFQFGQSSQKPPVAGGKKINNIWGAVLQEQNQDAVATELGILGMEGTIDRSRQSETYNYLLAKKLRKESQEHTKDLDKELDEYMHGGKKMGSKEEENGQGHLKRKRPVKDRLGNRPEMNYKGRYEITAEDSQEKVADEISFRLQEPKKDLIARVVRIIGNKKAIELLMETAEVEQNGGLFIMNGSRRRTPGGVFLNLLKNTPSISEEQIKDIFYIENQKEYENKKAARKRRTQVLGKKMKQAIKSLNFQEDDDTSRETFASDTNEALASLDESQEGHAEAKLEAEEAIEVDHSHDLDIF
UniProt Q9H490: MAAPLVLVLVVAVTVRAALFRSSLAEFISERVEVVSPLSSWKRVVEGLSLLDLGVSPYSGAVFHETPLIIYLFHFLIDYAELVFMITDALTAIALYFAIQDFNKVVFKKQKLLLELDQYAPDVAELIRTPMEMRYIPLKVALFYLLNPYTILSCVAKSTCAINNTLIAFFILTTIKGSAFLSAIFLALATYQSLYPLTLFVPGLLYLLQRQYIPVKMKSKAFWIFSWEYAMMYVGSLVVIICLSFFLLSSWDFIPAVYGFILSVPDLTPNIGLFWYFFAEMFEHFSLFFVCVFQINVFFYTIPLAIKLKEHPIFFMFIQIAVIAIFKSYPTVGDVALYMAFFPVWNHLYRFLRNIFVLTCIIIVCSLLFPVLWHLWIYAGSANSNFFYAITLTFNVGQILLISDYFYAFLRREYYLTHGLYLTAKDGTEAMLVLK
UniProt O75439: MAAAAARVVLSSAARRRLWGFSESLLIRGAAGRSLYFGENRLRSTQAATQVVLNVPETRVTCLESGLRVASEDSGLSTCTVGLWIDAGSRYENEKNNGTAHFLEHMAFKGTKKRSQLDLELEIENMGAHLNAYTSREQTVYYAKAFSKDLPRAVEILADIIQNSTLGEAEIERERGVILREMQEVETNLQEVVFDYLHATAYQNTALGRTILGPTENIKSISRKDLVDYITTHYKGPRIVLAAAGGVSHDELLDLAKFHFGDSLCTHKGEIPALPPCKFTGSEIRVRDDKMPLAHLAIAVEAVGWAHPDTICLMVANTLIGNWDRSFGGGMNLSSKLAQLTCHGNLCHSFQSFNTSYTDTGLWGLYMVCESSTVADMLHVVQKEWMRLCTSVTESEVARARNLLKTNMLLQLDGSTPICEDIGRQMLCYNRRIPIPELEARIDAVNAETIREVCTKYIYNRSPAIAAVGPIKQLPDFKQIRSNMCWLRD
UniProt Q9NWS0, whole entry: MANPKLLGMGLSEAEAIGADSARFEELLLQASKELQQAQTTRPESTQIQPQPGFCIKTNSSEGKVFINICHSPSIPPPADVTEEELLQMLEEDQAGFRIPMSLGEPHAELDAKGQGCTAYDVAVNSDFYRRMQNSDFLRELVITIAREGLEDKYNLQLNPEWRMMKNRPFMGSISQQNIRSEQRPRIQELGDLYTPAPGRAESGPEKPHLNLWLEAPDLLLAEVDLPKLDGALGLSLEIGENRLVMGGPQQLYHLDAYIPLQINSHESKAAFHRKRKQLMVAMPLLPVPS
UniProt P36871: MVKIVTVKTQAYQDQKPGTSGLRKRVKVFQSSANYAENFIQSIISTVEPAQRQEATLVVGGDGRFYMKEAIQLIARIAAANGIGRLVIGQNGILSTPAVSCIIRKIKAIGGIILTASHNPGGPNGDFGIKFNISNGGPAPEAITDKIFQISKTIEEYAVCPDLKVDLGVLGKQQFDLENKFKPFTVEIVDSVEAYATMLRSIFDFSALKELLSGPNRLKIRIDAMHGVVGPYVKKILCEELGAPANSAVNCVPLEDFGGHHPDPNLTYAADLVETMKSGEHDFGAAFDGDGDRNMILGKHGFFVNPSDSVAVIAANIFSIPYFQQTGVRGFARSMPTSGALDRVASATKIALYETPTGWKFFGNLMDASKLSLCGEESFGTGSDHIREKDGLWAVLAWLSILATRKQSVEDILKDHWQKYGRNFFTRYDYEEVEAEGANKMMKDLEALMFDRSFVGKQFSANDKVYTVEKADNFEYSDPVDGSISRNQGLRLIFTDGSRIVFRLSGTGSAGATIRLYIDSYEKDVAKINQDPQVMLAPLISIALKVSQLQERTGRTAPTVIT
UniProt P30044: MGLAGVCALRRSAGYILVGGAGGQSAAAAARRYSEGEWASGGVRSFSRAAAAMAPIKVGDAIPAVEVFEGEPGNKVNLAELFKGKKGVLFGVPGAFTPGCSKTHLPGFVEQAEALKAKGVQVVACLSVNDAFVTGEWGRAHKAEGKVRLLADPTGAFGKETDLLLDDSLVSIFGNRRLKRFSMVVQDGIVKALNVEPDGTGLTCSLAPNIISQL
UniProt Q969N2: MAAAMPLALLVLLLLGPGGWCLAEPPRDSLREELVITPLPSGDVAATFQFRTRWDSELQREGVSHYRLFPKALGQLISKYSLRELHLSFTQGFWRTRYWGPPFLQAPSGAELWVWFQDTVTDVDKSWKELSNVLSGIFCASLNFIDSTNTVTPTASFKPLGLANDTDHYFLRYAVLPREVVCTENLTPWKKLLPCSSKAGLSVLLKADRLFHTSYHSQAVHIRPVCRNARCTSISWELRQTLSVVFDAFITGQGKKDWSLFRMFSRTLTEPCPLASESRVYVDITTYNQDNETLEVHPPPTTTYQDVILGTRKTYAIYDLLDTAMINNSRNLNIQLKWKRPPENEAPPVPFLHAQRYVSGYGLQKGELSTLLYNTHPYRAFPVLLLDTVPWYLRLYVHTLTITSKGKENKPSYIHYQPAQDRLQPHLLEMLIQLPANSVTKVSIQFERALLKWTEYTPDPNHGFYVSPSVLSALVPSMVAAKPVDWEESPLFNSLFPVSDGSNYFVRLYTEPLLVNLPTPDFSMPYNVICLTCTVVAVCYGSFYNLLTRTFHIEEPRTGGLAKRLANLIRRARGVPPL
UniProt O60678: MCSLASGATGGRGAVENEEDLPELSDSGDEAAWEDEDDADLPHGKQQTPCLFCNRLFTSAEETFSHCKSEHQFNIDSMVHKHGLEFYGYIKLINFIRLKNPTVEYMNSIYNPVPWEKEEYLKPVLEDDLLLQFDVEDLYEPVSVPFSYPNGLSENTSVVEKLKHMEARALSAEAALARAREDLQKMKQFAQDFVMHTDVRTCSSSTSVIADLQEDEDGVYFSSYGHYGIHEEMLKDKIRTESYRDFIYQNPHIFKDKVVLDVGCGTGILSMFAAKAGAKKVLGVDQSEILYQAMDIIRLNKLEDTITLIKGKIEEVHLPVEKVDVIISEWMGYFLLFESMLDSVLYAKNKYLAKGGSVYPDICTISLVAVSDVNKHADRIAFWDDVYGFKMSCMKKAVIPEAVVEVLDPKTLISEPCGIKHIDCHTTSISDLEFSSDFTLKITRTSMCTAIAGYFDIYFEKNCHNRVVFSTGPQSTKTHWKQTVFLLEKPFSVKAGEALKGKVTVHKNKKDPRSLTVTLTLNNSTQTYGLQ

compound: COc1ccc(Cn2ccc3ccc(C(=O)NO)cc32)cc1; test: dose-dependent thermal stabilisation call (2D-TPP, DLPTP, 10% FDR) (binary (1 = stabilised)); higher = stabilised by the compound; details: system: HL-60 intact cells; concentration range 0.04-10 µM

Row | Target | dose-dependent thermal stabilisation call
1 | PPM2C (UniProt Q9P0J1) | inactive: 0
2 | PML (UniProt P29590) | inactive: 0
3 | PLD6 (UniProt Q8N2A8) | inactive: 0
4 | PPP3CC (UniProt P48454) | inactive: 0
5 | PRMT1 (UniProt Q99873) | inactive: 0
6 | PNO1 (UniProt Q9NRX1) | inactive: 0
7 | POLR2I (UniProt P36954) | inactive: 0
8 | PRMT10 (UniProt Q6P2P2) | inactive: 0
9 | PHC2 (UniProt Q8IXK0) | inactive: 0
10 | PNN (UniProt Q9H307) | inactive: 0
11 | PRC1 (UniProt O43663) | inactive: 0
12 | PHF3 (UniProt Q92576) | inactive: 0
13 | POLR3B (UniProt Q9NW08) | inactive: 0
14 | PIP5K1A (UniProt Q99755) | inactive: 0
15 | PIK3AP1 (UniProt Q6ZUJ8) | inactive: 0
16 | PPP4C (UniProt P60510) | inactive: 0
17 | PIP3AP (UniProt Q9C0I1) | inactive: 0
18 | PPID (UniProt Q08752) | inactive: 0
19 | PHAX (UniProt Q9H814) | inactive: 0

Row | Target | dose-dependent thermal stabilisation call
20 | PHF6 (UniProt Q8IWS0) | inactive: 0
21 | PIGU (UniProt Q9H490) | inactive: 0
22 | PMPCB (UniProt O75439) | inactive: 0
23 | PGK1 (UniProt P00558) | inactive: 0
24 | PRKCI (UniProt P41743) | inactive: 0
25 | PRIM2 (UniProt P49643) | inactive: 0
26 | POLG2 (UniProt Q9UHN1) | inactive: 0
27 | PIGA (UniProt P37287) | inactive: 0
28 | PMS1 (UniProt P54277) | inactive: 0
29 | PIH1D1 (UniProt Q9NWS0) | inactive: 0
30 | PI4K2B (UniProt Q8TCG2) | inactive: 0
31 | PGM2 (UniProt Q96G03) | inactive: 0
32 | PPP2R2D (UniProt Q66LE6) | inactive: 0
33 | PGM1 (UniProt P36871) | active: 1
34 | PRDX5 (UniProt P30044) | inactive: 0
35 | PIGT (UniProt Q969N2) | inactive: 0
36 | PLD3 (UniProt Q8IV08) | inactive: 0
37 | POLR2E (UniProt P19388) | inactive: 0
38 | PRMT3 (UniProt O60678) | inactive: 0

2 entries drawn at random from the list so far, as already listed:
Row | Target | dose-dependent thermal stabilisation call
21 | PIGU (UniProt Q9H490) | inactive: 0
35 | PIGT (UniProt Q969N2) | inactive: 0
